# In the supplement of paper PMC12067093, “Discovery and optimisation of a covalent ligand for TRIM25 and its application to targeted protein ubiquitination” (Chemical Science, 2025):
# The other results are listed elsewhere or left out.
# Compound: Cc1cc(ccc1-c1ccccc1)C(=O)N1CCCN(CC1)C(=O)CCl [compound 10]
# Experiment: probe-labelled cysteine peptide fold change vs DMSO (competition) (log2 fold change); higher = less target engagement (more negative = stronger competition)
# Conditions: THP-1, incubation time: 4 h
# 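Note: competitive profiling in live THP-1 cells: cysteine peptides tagged with an iodoacetamide desthiobiotin (IA-DTB) probe, intensity after compound treatment relative to DMSO-treated cells.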
Target,probe-labelled cysteine peptide fold change (10 µM),probe-labelled cysteine peptide fold change (50 µM)
COPA_P53621_1169_NPTDAYQLNYDMHNPFDICAASYRPIYR (UniProt P53621),0.0749,-0.127
COPS7B_Q9H9Q2_240_ATASSSAQEMEQQLAERECPPHAEQR (UniProt Q9H9Q2),-0.218,-0.191
COMT_P21964_223_GTVLLADNVICPGAPDFLAHVR (UniProt P21964),-0.0481,0.108
COG2_Q14746_563_NFSSISAALEDSQSSFSACVPSLSSK (UniProt Q14746),0.12,-0.101
COQ8B_Q96D53_499_LAGAFLACAHLR (UniProt Q96D53),-0.105,-0.96
CNN2_Q99439_61_DGTILCTLMNK (UniProt Q99439),0.264,0.000245
COP1_Q8NHY2_704_DRKEDDTNEFVSAVCWR (UniProt Q8NHY2),0.411,-0.248
COG2_Q14746_579_IIQDLSDSCFGFLK (UniProt Q14746),0.103,0.245
COPA_P53621_380_SGSKFPVFNMSYNPAENAVLLCTR (UniProt P53621),0.183,-0.568
COPA_P53621_1013_LQLCYQLTTVGK (UniProt P53621),0.167,0.444
CNP_P09543_335_AHITLGCAADVEAVQTGLDLLEILRQEK (UniProt P09543),-0.205,-0.657
COPA_P53621_254_GHYNNVSCAVFHPR (UniProt P53621),0.0735,-0.0636
COLGALT1_Q8NBJ5_228_GCFAVPMVHSTFLIDLR (UniProt Q8NBJ5),0.305,0.311
COMMD9_Q9P000_160_IQEDPSLCGDK (UniProt Q9P000),-0.0729,0.278

# Pulled one by one from above:
Target,probe-labelled cysteine peptide fold change (10 µM),probe-labelled cysteine peptide fold change (50 µM)
COG2_Q14746_563_NFSSISAALEDSQSSFSACVPSLSSK (UniProt Q14746),0.12,-0.101
COMT_P21964_223_GTVLLADNVICPGAPDFLAHVR (UniProt P21964),-0.0481,0.108
